From paper PMC3400628
No constants are given. Whether binding was seen depends on the method and setting. For some assays here: Binding seen in cells or lysates may run through a third protein. Some results given as binding are weak or reduced against the parent protein; the word gives no strength. Sequences can lack the tags named with a protein. Blank lines part the entries; values can stand above or below the binder they belong to.

What was measured:
[1] = biological target: Flag-NOD2 (human) (UniProt Q9HC29)
[2] = biological target: T1, human TRIM18 (yeast two-hybrid fusion) (human) (UniProt O15344); assay: two-hybrid; binary LexA/B42 yeast two-hybrid; baits in pEG202, preys in pJG4-5; EGY42/EGY48 diploids by mating; reporters lacZ (blue colonies) and LEU2 (growth without Leu)
T1 sequence: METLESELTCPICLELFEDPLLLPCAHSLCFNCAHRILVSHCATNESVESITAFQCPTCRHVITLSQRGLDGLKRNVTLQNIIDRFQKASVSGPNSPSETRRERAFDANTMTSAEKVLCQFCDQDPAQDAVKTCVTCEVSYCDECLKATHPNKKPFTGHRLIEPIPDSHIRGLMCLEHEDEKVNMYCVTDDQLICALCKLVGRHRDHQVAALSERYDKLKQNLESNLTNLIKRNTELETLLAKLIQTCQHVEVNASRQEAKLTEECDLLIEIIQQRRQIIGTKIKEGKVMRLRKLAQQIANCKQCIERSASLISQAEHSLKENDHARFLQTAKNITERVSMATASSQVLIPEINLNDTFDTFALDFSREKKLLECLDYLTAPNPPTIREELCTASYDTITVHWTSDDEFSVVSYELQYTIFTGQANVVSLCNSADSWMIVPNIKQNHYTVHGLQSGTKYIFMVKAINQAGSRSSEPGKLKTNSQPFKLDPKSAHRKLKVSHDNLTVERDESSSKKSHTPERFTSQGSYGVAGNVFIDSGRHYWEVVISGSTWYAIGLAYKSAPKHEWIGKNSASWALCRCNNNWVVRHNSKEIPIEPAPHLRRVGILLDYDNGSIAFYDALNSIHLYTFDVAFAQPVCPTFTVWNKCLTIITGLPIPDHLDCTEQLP

[3] = biological target: T2, human TRIM8 (yeast two-hybrid fusion) (human) (UniProt Q9BZR9); assay: as above
T2 sequence: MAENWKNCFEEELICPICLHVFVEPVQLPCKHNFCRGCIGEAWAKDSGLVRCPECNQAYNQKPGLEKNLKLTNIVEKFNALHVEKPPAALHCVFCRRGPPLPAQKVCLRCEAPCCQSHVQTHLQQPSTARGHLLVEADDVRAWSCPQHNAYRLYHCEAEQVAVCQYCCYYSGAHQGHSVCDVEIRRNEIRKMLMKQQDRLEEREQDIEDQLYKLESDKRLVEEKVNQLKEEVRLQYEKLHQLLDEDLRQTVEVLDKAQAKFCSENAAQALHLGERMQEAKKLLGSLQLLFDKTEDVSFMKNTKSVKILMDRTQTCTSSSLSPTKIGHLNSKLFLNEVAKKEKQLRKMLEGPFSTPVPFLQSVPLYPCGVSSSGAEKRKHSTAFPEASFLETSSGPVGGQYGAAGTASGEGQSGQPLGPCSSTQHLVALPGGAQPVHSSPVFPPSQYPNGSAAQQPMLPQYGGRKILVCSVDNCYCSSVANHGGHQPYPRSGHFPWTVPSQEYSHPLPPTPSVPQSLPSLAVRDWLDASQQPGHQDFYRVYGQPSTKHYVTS

B2: human TRIM18 (yeast two-hybrid fusion) (protein, UniProt O15344 1-667)
chain: T1 sequence
binding [2]: binds

B3: human TRIM8 (yeast two-hybrid fusion) (protein, UniProt Q9BZR9 1-551)
chain: T2 sequence
binding [3]: binds

B5: TRIM27 ΔRING (3xmyc vector) (domain or fragment, UniProt P14373 63-513)
chain: RHMRPNRHLANVTQLVKQLRTERPSGPGGEMGVCEKHREPLKLYCEEDQMPICVVCDRSREHRGHSVLPLEEAVEGFKEQIQNQLDHLKRVKDLKKRRRAQGEQARAELLSLTQMEREKIVWEFEQLYHSLKEHEYRLLARLEELDLAIYNSINGAITQFSCNISHLSSLIAQLEEKQQQPTRELLQDIGDTLSRAERIRIPEPWITPPDLQEKIHIFAQKCLFLTESLKQFTEKMQSDMEKIQELREAQLYSVDVTLDPDTAYPSLILSDNLRQVRYSYLQQDLPDNPERFNLFPCVLGSPCFIAGRHYWEVEVGDKAKWTIGVCEDSVCRKGGVTSAPQNGFWAVSLWYGKEYWALTSPMTALPLRTPLQRVGIFLDYDAGEVSFYNVTERCHTFTFSHATFCGPVRPYFSLSYSGGKSAAPLIICPMSGIDGFSGHVGNHGHSMETSP
binding [1]: binds

Other lines, results leading:

binding [1]: binds
B1: TRIM27 ΔRING+BBox (3xmyc vector) (domain or fragment, UniProt P14373 133-513)
chain: EEAVEGFKEQIQNQLDHLKRVKDLKKRRRAQGEQARAELLSLTQMEREKIVWEFEQLYHSLKEHEYRLLARLEELDLAIYNSINGAITQFSCNISHLSSLIAQLEEKQQQPTRELLQDIGDTLSRAERIRIPEPWITPPDLQEKIHIFAQKCLFLTESLKQFTEKMQSDMEKIQELREAQLYSVDVTLDPDTAYPSLILSDNLRQVRYSYLQQDLPDNPERFNLFPCVLGSPCFIAGRHYWEVEVGDKAKWTIGVCEDSVCRKGGVTSAPQNGFWAVSLWYGKEYWALTSPMTALPLRTPLQRVGIFLDYDAGEVSFYNVTERCHTFTFSHATFCGPVRPYFSLSYSGGKSAAPLIICPMSGIDGFSGHVGNHGHSMETSP

binding [1]: binds
B4: TRIM27 PRY-SPRY domain alone (3xmyc vector) (domain or fragment, UniProt P14373 296-513)
chain: EKMQSDMEKIQELREAQLYSVDVTLDPDTAYPSLILSDNLRQVRYSYLQQDLPDNPERFNLFPCVLGSPCFIAGRHYWEVEVGDKAKWTIGVCEDSVCRKGGVTSAPQNGFWAVSLWYGKEYWALTSPMTALPLRTPLQRVGIFLDYDAGEVSFYNVTERCHTFTFSHATFCGPVRPYFSLSYSGGKSAAPLIICPMSGIDGFSGHVGNHGHSMETSP
